We go through 35 compounds from PubChem BioAssay AID1487 (National Center for Advancing Translational Sciences (NCATS), 2009).

Broadly, the AC50 is the concentration giving half of the maximal activity seen.

Several values for one entry are separate records, joined by “and”; a condition that tells them apart may be missing. Equal entries are not always repeated. The list shows a part of the results. Shown are side measurements of this screen, not its main read-out; they come without a call. Compounds called inactive in the main read-out are mostly missing here. Potencies come from curve fits of mixed quality, noted in brackets.

A short description of the experiment: qHTS Assay for Modulators of Lamin A Splicing. The following applies: HeLa LMNA splicing GFP/RFP minigene ratio, 48 h. A digest of the protocol:
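S3 HeLa cells stably expressing lamin A-EGFP splicing minigene plus DsRed2, 600 cells/well, 48 h compound exposure at 37C. Laser-scanning cytometry; analysed as GFP (500-530 nm)/RFP (575-640 nm) total intensity ratio; 0.5% DMSO vehicle.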
For orientation: In qHTS, concentration-response curves come from the screen itself.

[1] abbreviates: measured here: RFP viability control channel.
Where [2] appears, read: measured here: GFP splicing reporter channel.

As for `NNC(=O)c1cc2c(N3CCC(Cc4ccccc4)CC3)ncnc2s1`, the concentration at half-maximal activity (AC50) under setting [1] is 31.6 µM [rising, single point].
In the case of `NCCc1cnc[nH]1`, under setting [2], the AC50 was 1 µM [falling, full curve].
Take `C(=C\c1ccccc1)/CN1CCN(c2ncnc3c2oc2ccccc23)CC1`: the AC50 under setting [1] was 2.82 µM [rising, full curve].
Take `COc1ccc(NC(=O)c2cc3c(s2)CCC3)cc1S(=O)(=O)N1CCOCC1`: the AC50 under setting [1] was 31.6 µM [rising, single point].
Turning to `CN1CCN(C(=O)c2cc(Cl)ccc2Cl)CC1`, the AC50 under setting [1] is 0.0141 µM [falling, full curve, poor fit].
`Cc1cccc(NC(=S)NNc2ncc(C(F)(F)F)cc2Cl)c1`: the AC50 reads like this: under setting [2], 11.2 µM [rising, partial curve, poor fit]; under setting [1], 12.6 µM [rising, partial curve].
In the case of `NS(=O)(=O)c1ccc(CCNC(=O)NC2(C(F)(F)F)Oc3ccccc3O2)cc1`, the AC50 under setting [1] was 35.5 µM [rising, single point].
For `Cc1cc(C)c(C)c(S(=O)(=O)N2CCN(CC(=O)c3c(N)n(Cc4ccccc4)c(=O)n(C)c3=O)CC2)c1C`, the AC50 under setting [1] was 17.8 µM [rising, single point].
In the case of `COc1ccc(-c2nnn(CC(=O)N(Cc3cccs3)C(C)C(=O)NC3CCCC3)n2)cc1OC` (stereo not given), under setting [1], the AC50 was 14.1 µM [rising, single point].
On to `CCOC(=O)C1CCN(C2CC(=O)N(c3ccc(OCC)cc3)C2=O)CC1` (stereo not given), for which the half-maximal activity concentration (AC50) under setting [1] is 35.5 µM [rising, single point].
The same measure, in the same setting: then `O=c1oc2ccccc2nc1/C=C(O)/C=C/c1ccc(F)cc1`, with 17.8 µM [rising, single point].
Take `CCCn1c(SCC(=O)NCC2CCCO2)nc2c1c(=O)n(C)c(=O)n2C` (stereo not given): under setting [2], the AC50 was 11.2 µM [rising, single point].
`Cc1ccc(C(C)C)c(OCC(=O)Nc2ccccc2N2CCN(C)CC2)c1`: the AC50 under setting [1] is 11.2 µM [rising, single point].
In the case of `Cn1c(=O)n(C)c2cc(NC(=O)CCl)ccc21`, the AC50 by setting is: under setting [2], 2.82 µM [falling, partial curve, poor fit]; under setting [1], 2.82 µM [falling, partial curve, poor fit].
Regarding `O=C(c1ccc(S(=O)(=O)c2cccc(Cl)c2)c([N+](=O)[O-])c1)N1CCN(Cc2ccccc2)CC1`, the AC50 runs as follows: under setting [2], 35.5 µM [falling, single point]; under setting [1], 35.5 µM [falling, single point].
`Cc1ccc(S(=O)(=O)N2CCCCC2C(=O)NCc2ccco2)cc1` (stereo not given): under setting [1], the half-maximal activity concentration (AC50) was 0.316 µM [falling, single point].
Consider `Clc1cccc(-n2cc(-c3ccccc3)c3c(N4CCCCC4)ncnc32)c1`, for which the AC50 was 4.47 µM [falling, partial curve] under setting [2] and 0.562 µM [falling, full curve] under setting [1].
In the case of `Cn1c(O)c(/C=C2\C=NN=C2c2ccccc2)sc1=S`, under setting [1], the AC50 was 35.5 µM [falling, single point].
The same measure, in the same setting: the result for `Fc1ccc(-n2cc(-c3ccccc3)c3c(NCCc4ccccc4)ncnc32)cc1` reads 1 µM [rising, full curve, poor fit]; that for `CCC(C)(C)NC(=O)C1CCN(S(=O)(=O)c2c(C)noc2/C=C/c2ccc(C)cc2)CC1`, 0.00316 µM [falling, full curve, poor fit].
With `Cn1c(/C(C#N)=C(\O)COc2ccc3ccccc3c2)nc2ccccc21`, the AC50 under setting [2] was 0.00501 µM [rising, full curve, poor fit].
On to `CCOC(=O)N1CCC(n2c(SCC(=O)NCCC3=CCCCC3)nc3ccccc3c2=O)CC1`, for which, under setting [1], the AC50 is 10 µM [rising, partial curve, poor fit].
Consider `COc1cccc(CNC(=O)c2oc3c(c2C)-c2nn(Cc4cccc(Cl)c4)cc2CC3)c1`, for which the AC50 is 35.5 µM [falling, partial curve] under setting [2] and 35.5 µM [falling, partial curve] under setting [1].
As to `COc1ccc(/C=C/C(=O)Nc2ccc3c(c2)CCC3)cc1OC`, the concentration at half-maximal activity (AC50) under setting [1] is 12.6 µM [rising, partial curve].
Take `CCOc1ccccc1CNC(=O)C1CCN(c2nc3ccccc3o2)CC1`: the AC50 was 11.2 µM [rising, partial curve, poor fit] under setting [2] and 15.8 µM [rising, partial curve] under setting [1].
With `CCOC(=O)CN1C(=O)N[C@@H](c2cccc(C(F)(F)F)c2)[C@H](C(C)=O)[C@H]1C`, the AC50 under setting [2] was 0.000891 µM [rising, full curve, poor fit].
For `COc1ccc(-c2nnc(COc3ccc4ccccc4c3)o2)cc1OC`, the AC50 under setting [1] was 14.1 µM [rising, single point].
`CC(C)Cn1c(/C=C/c2ccccc2)nc2ccccc21`: the AC50 under setting [1] was 17.8 µM [rising, partial curve, poor fit].
Turning to `CN(C)S(=O)(=O)c1cccc(NC(=O)COC(=O)c2cn(-c3ccccc3)nc2-c2ccccc2)c1`, the AC50 was 35.5 µM [rising, single point] under setting [2] and 35.5 µM [rising, single point] under setting [1].
Regarding `Cc1ccccc1NC(=O)CN1C(=O)N/C(=C\c2cccn2-c2cccc(C(=O)O)c2)C1=O`, the AC50 by setting is: under setting [2], 0.158 µM [falling, full curve, poor fit]; under setting [1], 0.00447 µM [falling, full curve, poor fit].
As for `Cc1ncc(CC(=O)n2cc(C(=O)c3cc(Cl)ccc3O)cn2)s1`, the AC50 under setting [2] is 5.62 µM [rising, partial curve].
In the case of `NCCCC(=O)O`, the AC50 under setting [2] was 5.62 µM [rising, single point] and 50.1 nM [rising, full curve, poor fit]; the AC50 under setting [1] was 5.62 µM [rising, single point] and 6.31 µM [falling, single point] and 7.94 nM [falling, full curve, poor fit].
With `COc1cccc(OCc2ccc(C(=O)NCC3CCCO3)cc2)c1` (stereo not given), the AC50 is 17.8 µM [rising, single point] under setting [2] and 14.1 µM [rising, partial curve] under setting [1].
Regarding `c1csc(-c2nnc(NC3CCCCC3)c3ccccc23)c1`, the AC50 under setting [1] is 35.5 µM [rising, single point].
As for `Cc1ccc(-c2nn(C(C)(C)C)c3ncnc(N)c23)cc1`, the AC50 under setting [2] is 17.8 µM [falling, single point].
